{
  "sequences": {"note": "Amino acid sequences for entries named in this document (tags omitted). A change or cut given only in a name is not applied to a line headed by its entry.", "UniProt Q9BXJ9": "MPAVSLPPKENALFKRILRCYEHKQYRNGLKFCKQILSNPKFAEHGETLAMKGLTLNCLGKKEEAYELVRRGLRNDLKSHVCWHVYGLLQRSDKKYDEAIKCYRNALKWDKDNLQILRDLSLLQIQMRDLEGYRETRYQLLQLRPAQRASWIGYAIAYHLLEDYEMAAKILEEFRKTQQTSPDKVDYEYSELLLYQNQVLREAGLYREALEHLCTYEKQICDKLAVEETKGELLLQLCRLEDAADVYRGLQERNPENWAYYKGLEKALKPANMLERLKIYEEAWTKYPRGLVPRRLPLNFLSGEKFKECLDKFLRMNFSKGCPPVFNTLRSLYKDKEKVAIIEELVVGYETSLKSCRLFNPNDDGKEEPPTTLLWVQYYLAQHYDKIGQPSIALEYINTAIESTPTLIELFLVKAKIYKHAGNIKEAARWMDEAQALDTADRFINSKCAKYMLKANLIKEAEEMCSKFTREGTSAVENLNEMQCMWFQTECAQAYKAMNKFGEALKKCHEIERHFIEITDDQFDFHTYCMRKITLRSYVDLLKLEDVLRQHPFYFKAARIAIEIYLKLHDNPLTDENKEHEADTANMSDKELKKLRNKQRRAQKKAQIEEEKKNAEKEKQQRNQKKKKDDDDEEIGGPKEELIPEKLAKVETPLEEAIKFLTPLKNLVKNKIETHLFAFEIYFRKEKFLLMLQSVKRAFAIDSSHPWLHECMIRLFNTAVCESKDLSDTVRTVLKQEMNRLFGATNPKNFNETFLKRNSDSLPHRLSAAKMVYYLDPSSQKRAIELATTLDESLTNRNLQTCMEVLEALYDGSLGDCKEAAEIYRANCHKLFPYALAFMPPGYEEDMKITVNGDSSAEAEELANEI", "UniProt Q9BWT7": "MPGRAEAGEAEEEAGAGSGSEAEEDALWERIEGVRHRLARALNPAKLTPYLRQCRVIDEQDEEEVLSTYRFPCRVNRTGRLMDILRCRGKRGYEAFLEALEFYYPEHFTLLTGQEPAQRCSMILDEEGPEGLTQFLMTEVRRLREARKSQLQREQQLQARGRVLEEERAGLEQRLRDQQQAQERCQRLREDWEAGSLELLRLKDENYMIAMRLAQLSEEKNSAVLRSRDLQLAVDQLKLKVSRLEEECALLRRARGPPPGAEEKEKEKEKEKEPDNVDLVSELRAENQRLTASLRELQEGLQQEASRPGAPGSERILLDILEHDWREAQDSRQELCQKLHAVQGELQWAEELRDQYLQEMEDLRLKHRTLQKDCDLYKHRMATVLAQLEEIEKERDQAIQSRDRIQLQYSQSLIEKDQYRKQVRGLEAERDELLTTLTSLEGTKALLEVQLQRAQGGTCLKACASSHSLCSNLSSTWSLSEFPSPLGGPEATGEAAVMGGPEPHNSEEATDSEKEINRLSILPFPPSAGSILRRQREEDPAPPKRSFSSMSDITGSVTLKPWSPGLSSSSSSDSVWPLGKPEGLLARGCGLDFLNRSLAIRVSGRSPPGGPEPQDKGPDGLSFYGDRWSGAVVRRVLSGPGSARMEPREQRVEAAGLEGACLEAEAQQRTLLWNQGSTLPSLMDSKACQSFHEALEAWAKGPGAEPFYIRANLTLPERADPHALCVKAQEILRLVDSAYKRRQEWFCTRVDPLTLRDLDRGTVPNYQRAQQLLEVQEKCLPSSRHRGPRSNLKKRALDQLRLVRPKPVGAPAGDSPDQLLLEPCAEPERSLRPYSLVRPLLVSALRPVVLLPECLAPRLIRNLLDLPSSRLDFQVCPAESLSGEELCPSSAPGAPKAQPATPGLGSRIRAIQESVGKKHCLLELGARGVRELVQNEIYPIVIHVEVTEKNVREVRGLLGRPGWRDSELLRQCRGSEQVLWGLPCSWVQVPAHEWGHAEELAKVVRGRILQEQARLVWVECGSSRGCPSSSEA", "UniProt Q9H267": "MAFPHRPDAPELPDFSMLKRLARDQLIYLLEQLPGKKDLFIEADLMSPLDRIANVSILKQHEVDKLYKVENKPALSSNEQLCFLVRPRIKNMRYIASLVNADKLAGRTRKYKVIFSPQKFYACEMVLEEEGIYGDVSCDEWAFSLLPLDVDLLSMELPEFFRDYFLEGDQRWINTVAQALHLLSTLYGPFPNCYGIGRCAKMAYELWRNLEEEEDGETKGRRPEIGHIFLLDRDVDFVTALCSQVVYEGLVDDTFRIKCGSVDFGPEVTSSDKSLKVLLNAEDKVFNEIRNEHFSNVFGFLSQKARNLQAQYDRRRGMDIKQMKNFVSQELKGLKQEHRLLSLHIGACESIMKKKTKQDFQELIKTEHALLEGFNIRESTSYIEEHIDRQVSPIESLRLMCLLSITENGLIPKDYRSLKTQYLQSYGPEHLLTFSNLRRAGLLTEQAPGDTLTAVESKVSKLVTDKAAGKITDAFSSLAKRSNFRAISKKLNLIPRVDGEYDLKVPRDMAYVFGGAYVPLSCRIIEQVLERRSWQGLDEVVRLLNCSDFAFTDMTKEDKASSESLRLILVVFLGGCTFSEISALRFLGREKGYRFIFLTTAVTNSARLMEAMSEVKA", "UniProt Q9BYG4": "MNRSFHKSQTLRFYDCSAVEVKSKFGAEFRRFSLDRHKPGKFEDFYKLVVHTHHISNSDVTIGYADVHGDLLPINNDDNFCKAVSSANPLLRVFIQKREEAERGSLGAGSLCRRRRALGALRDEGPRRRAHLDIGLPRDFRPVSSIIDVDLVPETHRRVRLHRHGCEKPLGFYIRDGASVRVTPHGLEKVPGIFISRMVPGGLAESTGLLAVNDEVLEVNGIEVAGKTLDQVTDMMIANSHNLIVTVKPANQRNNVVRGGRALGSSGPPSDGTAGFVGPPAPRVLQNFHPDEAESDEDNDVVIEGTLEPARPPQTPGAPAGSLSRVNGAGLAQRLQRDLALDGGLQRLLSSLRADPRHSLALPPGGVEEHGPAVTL", "UniProt Q9BXV9": "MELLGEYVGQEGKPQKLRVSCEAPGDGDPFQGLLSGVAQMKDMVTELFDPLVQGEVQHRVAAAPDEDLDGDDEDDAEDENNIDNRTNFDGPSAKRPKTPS", "UniProt Q9H1C7": "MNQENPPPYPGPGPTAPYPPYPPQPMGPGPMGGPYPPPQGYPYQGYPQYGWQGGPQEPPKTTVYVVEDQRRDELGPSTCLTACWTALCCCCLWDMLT", "UniProt Q9C000": "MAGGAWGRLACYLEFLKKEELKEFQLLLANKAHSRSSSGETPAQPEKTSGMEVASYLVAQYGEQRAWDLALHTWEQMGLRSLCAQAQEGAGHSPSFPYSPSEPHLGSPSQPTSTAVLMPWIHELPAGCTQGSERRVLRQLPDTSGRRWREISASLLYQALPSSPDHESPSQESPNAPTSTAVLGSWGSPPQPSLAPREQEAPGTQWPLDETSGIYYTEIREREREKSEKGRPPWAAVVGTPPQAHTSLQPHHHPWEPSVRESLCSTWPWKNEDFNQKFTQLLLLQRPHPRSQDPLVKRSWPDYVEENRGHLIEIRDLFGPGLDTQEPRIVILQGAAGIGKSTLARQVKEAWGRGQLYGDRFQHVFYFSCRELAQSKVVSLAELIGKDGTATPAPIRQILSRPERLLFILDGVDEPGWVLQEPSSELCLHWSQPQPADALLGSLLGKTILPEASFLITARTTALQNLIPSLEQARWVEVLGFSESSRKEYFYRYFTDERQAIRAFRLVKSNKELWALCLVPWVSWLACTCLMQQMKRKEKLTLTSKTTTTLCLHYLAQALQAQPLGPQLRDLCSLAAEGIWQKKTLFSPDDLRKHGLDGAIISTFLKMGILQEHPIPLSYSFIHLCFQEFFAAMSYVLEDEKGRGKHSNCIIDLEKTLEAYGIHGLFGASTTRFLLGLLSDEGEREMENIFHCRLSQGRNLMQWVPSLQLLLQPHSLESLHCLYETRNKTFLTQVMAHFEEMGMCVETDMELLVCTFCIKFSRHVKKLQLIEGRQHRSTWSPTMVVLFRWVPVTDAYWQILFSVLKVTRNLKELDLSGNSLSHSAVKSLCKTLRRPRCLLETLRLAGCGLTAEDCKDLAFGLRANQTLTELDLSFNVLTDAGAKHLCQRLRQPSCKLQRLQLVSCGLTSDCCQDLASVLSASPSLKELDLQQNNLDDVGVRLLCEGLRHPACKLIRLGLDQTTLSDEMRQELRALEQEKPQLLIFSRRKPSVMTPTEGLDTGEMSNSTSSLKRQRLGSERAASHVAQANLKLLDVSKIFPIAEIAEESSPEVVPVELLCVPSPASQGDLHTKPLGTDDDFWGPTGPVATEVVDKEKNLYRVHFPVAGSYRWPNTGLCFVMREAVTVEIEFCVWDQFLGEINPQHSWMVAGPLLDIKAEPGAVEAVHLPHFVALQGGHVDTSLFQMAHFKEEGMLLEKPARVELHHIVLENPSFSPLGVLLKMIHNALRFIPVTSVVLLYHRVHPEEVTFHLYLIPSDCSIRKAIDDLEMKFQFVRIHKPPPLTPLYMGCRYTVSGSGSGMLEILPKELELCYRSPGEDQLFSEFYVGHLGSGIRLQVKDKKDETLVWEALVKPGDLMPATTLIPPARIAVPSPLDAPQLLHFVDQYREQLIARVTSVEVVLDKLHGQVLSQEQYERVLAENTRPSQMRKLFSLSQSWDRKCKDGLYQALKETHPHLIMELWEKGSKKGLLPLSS", "UniProt Q9BZK7": "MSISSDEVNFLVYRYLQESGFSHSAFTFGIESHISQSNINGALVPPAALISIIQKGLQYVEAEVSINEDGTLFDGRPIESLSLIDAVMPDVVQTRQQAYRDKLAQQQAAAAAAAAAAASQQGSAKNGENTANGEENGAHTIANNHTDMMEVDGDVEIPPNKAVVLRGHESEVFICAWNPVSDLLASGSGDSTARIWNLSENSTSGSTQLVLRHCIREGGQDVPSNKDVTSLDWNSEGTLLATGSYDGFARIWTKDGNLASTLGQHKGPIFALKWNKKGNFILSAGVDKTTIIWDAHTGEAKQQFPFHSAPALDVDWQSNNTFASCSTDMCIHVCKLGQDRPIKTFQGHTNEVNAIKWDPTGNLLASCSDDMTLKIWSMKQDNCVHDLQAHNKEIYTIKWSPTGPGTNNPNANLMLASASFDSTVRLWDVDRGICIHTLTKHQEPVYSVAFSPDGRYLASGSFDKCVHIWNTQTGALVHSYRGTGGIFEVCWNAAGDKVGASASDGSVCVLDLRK", "UniProt Q9BX68": "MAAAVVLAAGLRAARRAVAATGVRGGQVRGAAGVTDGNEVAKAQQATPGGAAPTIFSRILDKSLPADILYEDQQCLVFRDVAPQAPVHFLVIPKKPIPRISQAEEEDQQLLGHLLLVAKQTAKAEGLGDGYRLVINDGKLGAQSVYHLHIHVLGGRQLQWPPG", "UniProt Q9H3J6": "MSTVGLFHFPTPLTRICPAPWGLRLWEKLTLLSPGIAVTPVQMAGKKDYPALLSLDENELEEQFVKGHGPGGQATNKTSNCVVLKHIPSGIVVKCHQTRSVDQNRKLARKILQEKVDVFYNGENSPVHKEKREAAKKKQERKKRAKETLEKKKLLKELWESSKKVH", "UniProt Q9H1P3, whole entry": "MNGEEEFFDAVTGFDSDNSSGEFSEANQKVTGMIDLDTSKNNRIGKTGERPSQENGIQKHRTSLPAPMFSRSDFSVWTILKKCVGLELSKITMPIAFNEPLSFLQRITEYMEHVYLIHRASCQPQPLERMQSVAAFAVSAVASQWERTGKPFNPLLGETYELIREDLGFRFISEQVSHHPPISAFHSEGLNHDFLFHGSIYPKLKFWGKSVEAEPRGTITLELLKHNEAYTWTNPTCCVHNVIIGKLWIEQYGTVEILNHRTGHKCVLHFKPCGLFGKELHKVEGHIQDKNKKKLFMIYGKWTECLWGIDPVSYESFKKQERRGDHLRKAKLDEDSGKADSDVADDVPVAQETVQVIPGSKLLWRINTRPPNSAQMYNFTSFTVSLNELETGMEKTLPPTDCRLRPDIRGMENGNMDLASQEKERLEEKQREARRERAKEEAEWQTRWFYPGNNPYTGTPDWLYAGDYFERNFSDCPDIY", "UniProt Q9H3H1": "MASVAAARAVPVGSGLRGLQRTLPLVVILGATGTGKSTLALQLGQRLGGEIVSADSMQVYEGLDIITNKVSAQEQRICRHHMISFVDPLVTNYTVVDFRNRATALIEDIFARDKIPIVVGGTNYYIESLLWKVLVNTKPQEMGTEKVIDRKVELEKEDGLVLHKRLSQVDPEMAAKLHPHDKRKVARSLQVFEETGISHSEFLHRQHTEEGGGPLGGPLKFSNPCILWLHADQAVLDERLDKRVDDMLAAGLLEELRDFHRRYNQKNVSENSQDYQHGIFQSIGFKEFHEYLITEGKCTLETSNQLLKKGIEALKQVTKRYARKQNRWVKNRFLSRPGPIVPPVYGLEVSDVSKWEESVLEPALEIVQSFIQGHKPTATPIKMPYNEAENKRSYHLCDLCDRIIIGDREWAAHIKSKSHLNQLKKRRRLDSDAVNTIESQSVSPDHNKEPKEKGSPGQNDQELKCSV"},
  "source": "the supplement of paper PMC12819154",
  "about": "“High-throughput peptide-centric local stability assay extends protein–ligand identification to membrane proteins, tissues and bacteria” (Nature Structural & Molecular Biology, 2025)",
  "note": "The list shows a part of the results. Most entries show no effect beyond the scatter of the controls.",
  "data": [
    {"compound": "CN[C@@H]1C[C@H]2O[C@@](C)([C@@H]1OC)n1c3ccccc3c3c4c(c5c6ccccc6n2c5c31)C(=O)NC4 [staurosporine]", "assay": "log2 fold change of tryptic peptide abundance, ligand vs vehicle (limited proteolysis) (log2 ratio); higher = more trypsin-susceptible (destabilized)", "conditions": "ligand concentration: 20 uM; sample: K562 cleared lysate; digestion: 4 min, 22 C (HT-PELSA RT4min, Orbitrap Astral)", "values": [
      {"target": "UniProt Q9BXJ9 (peptide sequence: HFIEITDDQFDFHTYCMR, peptide start residue: 514)", "log2 fold change": 0.719},
      {"target": "UniProt Q9BWT7 (peptide sequence: ILLDILEHDWR, peptide start residue: 316)", "log2 fold change": -0.0993},
      {"target": "VPS33B (peptide sequence: VENKPALSSNEQLCFLVRPR, peptide start residue: 69) (UniProt Q9H267)", "log2 fold change": -1.09},
      {"target": "CSRNP2 (peptide sequence: TDNEEGCGMVK, peptide start residue: 512) (UniProt Q9H175)", "log2 fold change": 0.45},
      {"target": "UniProt Q9BYG4 (peptide sequence: VPGIFISR, peptide start residue: 189)", "log2 fold change": -0.107},
      {"target": "UniProt Q9BXV9 (peptide sequence: TNFDGPSAK, peptide start residue: 86)", "log2 fold change": -0.0223},
      {"target": "UPF3B (peptide sequence: RPEDESGRDYR, peptide start residue: 336) (UniProt Q9BZI7)", "log2 fold change": -0.34},
      {"target": "ASPSCR1 (peptide sequence: FANLPNNAKLEMVPASR, peptide start residue: 67) (UniProt Q9BZE9)", "log2 fold change": 0.285},
      {"target": "CYSTM1 (peptide sequence: TTVYVVEDQRR, peptide start residue: 61) (UniProt Q9H1C7)", "log2 fold change": -0.134},
      {"target": "NLRP1 (peptide sequence: AASHVAQANLK, peptide start residue: 1020) (UniProt Q9C000)", "log2 fold change": -0.371},
      {"target": "TBL1XR1 (peptide sequence: EGGQDVPSNK, peptide start residue: 217) (UniProt Q9BZK7)", "log2 fold change": -0.577},
      {"target": "HINT2 (peptide sequence: GAAGVTDGNEVAK, peptide start residue: 30) (UniProt Q9BX68)", "log2 fold change": -0.33},
      {"target": "CARD9 (peptide sequence: NPHDAGLSSGEPPEKER, peptide start residue: 476) (UniProt Q9H257)", "log2 fold change": -0.145},
      {"target": "UniProt Q9C0E8 (peptide sequence: ILEEVMEK, peptide start residue: 119)", "log2 fold change": -0.116},
      {"target": "C12orf65 (peptide sequence: VDVFYNGENSPVHK, peptide start residue: 116) (UniProt Q9H3J6)", "log2 fold change": -0.3},
      {"target": "OSBPL2 (peptide sequence: ASCQPQPLER, peptide start residue: 120) (UniProt Q9H1P3)", "log2 fold change": 0.942},
      {"target": "TRIT1 (peptide sequence: VLVNTKPQEMGTEK, peptide start residue: 133) (UniProt Q9H3H1)", "log2 fold change": 0.209}
    ]}
  ]
}
